The values below come from publication PMC10390495.

In experiment [1] the target is T1, hexokinase 2 (HK2), endogenous in unedited HCC cells (human (endogenous in MHCC97H, MHCC97H IR-R)) (UniProt P52789).
T1 sequence: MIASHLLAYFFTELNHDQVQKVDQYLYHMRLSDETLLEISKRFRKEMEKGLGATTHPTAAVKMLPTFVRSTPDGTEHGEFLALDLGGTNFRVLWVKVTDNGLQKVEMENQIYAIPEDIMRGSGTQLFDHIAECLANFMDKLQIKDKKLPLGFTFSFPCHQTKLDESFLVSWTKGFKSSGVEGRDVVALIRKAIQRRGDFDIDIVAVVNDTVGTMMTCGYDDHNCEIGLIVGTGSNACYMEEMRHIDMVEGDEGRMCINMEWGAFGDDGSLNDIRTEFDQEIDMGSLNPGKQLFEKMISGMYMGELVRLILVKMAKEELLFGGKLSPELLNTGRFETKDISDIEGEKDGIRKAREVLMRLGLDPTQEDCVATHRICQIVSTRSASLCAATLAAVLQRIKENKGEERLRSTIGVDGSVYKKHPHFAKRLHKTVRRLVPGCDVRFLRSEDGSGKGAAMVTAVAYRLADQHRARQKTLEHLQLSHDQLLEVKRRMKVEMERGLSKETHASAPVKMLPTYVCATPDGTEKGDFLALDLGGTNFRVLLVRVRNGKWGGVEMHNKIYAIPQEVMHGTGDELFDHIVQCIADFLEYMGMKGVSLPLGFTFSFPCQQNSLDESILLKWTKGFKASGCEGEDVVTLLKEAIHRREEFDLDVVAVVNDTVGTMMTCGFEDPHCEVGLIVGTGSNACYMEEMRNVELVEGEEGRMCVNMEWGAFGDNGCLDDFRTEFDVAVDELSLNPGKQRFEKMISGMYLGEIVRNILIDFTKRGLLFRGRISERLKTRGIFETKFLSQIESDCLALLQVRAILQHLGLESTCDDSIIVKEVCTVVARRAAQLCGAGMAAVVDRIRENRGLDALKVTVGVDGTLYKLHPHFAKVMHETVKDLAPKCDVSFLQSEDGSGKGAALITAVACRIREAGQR
Description: co-IP; lysates of unedited cells without ionizing radiation; protein A/G magnetic beads, western blot. A general note: A western blot detects proteins with antibodies after separation by electrophoresis.

Experiment [2] concerns the target T1, hexokinase 2 (HK2), endogenous in unedited HCC cells (human (endogenous in MHCC97H, MHCC97H IR-R)). Briefly: co-IP; lysates of unedited MHCC97H and MHCC97H IR-R cells post 8 Gy radiation; protein A/G magnetic beads, western blot.
Experiment [3] deals with T2, Flag-tagged hexokinase 2 (HK2), overexpressed from the lentiviral vector LV-HK2 (UniProt P52789).
T2 sequence: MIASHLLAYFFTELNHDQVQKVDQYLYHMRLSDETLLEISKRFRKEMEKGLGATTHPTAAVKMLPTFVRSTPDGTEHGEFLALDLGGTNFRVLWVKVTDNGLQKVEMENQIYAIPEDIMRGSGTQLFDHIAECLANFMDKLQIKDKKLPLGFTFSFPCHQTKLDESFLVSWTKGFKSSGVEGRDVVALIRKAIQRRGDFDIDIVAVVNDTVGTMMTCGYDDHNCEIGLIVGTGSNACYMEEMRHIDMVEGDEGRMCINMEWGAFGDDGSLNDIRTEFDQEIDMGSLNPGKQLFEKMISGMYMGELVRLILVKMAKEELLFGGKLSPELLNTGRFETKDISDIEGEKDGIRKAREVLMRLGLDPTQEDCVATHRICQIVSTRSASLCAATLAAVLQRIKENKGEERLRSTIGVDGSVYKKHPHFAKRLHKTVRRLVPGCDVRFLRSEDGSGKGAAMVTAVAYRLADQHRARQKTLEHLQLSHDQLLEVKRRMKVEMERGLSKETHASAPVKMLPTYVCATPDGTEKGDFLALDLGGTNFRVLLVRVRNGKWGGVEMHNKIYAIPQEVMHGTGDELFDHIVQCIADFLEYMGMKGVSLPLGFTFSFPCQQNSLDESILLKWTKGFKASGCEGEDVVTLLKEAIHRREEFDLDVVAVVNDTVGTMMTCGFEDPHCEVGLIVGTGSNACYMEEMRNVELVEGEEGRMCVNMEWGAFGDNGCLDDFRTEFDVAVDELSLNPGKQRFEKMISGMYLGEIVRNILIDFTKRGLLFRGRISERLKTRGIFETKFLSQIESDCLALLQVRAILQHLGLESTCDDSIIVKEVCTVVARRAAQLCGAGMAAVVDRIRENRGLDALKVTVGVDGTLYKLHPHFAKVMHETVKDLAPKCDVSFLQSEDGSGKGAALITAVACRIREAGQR
Description: co-IP; lysates of MHCC97H LV-HK2 and MHCC97L LV-HK2 cells post 8 Gy radiation; anti-HK2 or anti-AIMP2 against IgG, overnight 4 °C, protein A/G magnetic beads, western blot.

Experiment [4] deals with T3, aminoacyl tRNA synthetase complex interacting multifunctional protein 2 (AIMP2) (human (endogenous in MHCC97H, MHCC97L)) (UniProt Q13155).
T3 sequence: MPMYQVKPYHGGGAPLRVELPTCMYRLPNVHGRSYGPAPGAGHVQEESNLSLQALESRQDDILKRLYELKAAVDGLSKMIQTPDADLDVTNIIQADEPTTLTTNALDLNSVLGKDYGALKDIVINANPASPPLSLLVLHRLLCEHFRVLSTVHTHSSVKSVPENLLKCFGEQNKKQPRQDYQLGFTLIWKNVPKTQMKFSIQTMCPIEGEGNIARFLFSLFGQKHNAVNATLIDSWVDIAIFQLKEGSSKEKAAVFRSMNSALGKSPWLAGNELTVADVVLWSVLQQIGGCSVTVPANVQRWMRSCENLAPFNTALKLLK
Described as above.

No constants are given. Whether binding was seen depends on the method and setting. Binding seen in cells or lysates may run through a third protein. Some results given as binding are weak or reduced against the parent protein; the word gives no strength. For some of these results: Where a sequence is shown, tags or fusion partners need not be part of it.

B1: aminoacyl tRNA synthetase complex interacting multifunctional protein 2 (AIMP2) (protein, UniProt Q13155 1-320)
chain: MPMYQVKPYHGGGAPLRVELPTCMYRLPNVHGRSYGPAPGAGHVQEESNLSLQALESRQDDILKRLYELKAAVDGLSKMIQTPDADLDVTNIIQADEPTTLTTNALDLNSVLGKDYGALKDIVINANPASPPLSLLVLHRLLCEHFRVLSTVHTHSSVKSVPENLLKCFGEQNKKQPRQDYQLGFTLIWKNVPKTQMKFSIQTMCPIEGEGNIARFLFSLFGQKHNAVNATLIDSWVDIAIFQLKEGSSKEKAAVFRSMNSALGKSPWLAGNELTVADVVLWSVLQQIGGCSVTVPANVQRWMRSCENLAPFNTALKLLK
As to B1, the results for the binding entry in experiment [1], in experiment [2] and in experiment [3] were “no binding (condition: cells without ionizing radiation)”, “binds” and “binds”, respectively.

B2: Flag-tagged hexokinase 2 (HK2), overexpressed from the lentiviral vector LV-HK2 (enzyme, UniProt P52789 1-917)
chain: MIASHLLAYFFTELNHDQVQKVDQYLYHMRLSDETLLEISKRFRKEMEKGLGATTHPTAAVKMLPTFVRSTPDGTEHGEFLALDLGGTNFRVLWVKVTDNGLQKVEMENQIYAIPEDIMRGSGTQLFDHIAECLANFMDKLQIKDKKLPLGFTFSFPCHQTKLDESFLVSWTKGFKSSGVEGRDVVALIRKAIQRRGDFDIDIVAVVNDTVGTMMTCGYDDHNCEIGLIVGTGSNACYMEEMRHIDMVEGDEGRMCINMEWGAFGDDGSLNDIRTEFDQEIDMGSLNPGKQLFEKMISGMYMGELVRLILVKMAKEELLFGGKLSPELLNTGRFETKDISDIEGEKDGIRKAREVLMRLGLDPTQEDCVATHRICQIVSTRSASLCAATLAAVLQRIKENKGEERLRSTIGVDGSVYKKHPHFAKRLHKTVRRLVPGCDVRFLRSEDGSGKGAAMVTAVAYRLADQHRARQKTLEHLQLSHDQLLEVKRRMKVEMERGLSKETHASAPVKMLPTYVCATPDGTEKGDFLALDLGGTNFRVLLVRVRNGKWGGVEMHNKIYAIPQEVMHGTGDELFDHIVQCIADFLEYMGMKGVSLPLGFTFSFPCQQNSLDESILLKWTKGFKASGCEGEDVVTLLKEAIHRREEFDLDVVAVVNDTVGTMMTCGFEDPHCEVGLIVGTGSNACYMEEMRNVELVEGEEGRMCVNMEWGAFGDNGCLDDFRTEFDVAVDELSLNPGKQRFEKMISGMYLGEIVRNILIDFTKRGLLFRGRISERLKTRGIFETKFLSQIESDCLALLQVRAILQHLGLESTCDDSIIVKEVCTVVARRAAQLCGAGMAAVVDRIRENRGLDALKVTVGVDGTLYKLHPHFAKVMHETVKDLAPKCDVSFLQSEDGSGKGAALITAVACRIREAGQR
Consider B2, for which the binding result in experiment [4] is “binds”.
